Data reported in patent US20210188972A1 (A AND G PHARMACEUTICAL, published 2021).
No constants are given. Whether binding was seen depends on the method and setting. In cells and extracts the contact can be indirect. A yes stands for co-enrichment or nearness to the bait. Other partners may have been found.

Biological target: PTGFRN on SCSC cells (hamster spindle cell sarcomatoid carcinoma) (hamster)
Experiment: immunoprecipitation from biotinylated SCSC membrane lysate, western blot, mass spectrometry

B1: 33B7 (antibody, V domains shown)
VH: DVQLQESGPGLVKPSQSLSLTCSVTGCSITSGYYWNWIRQFPGNKLEWMGYISHDGNNNYSPSLKNRISITRDTSKNQFFLKLNSVTTEDTATYYCARGFYYYGYFGYWGQGTTLTVSS
VL: DIVMSQSPSSLAVSVGEKVTMSCKSSQSLLYSTNQKNYLAWYQQKPGQSPKPLIYWASTRESGVPDRFTGSGSGTDFTLTISSVKAEDLAVYYCQQYYSYRTFGGGTKLEIKR
notes: Murine hybridoma monoclonal IgG (ATCC PTA-124281); also called AG02; AGO2
- binding: binds
